Measured data: PubChem BioAssay AID1508597 (Cure First, 2020)

- Screen: 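Genes whose silencing sensitises or protects ovarian cancer cells against rucaparib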 (primary screen)
- System: human ovarian carcinoma lines grown from tumours: OCI-P5x (papillary serous) and OCI-C5x (clear cell)
- Knock-down reagent: siRNA pool against human genes, 1.25 pmol siRNA per well
- Duration: 72 h or 96 h, depending on the cell culture
- Treatment: rucaparib 20 µM (about IC30) or vehicle, present until read-out
- Read-out: 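ATP luminescence measured at 72 or 96 h according to the culture, then normalised and expressed as percent viability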
- Scale: viability, normalised: higher = more viable cells remaining
- Active means: 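a well counts as a hit if its normalised viability is under 80 percent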
- Calls: active = viability under 80%; inactive = viability 80% or more
The whole screen tested about 2,100 reagents; this is an unselected part. 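Calls flag viability under 80% in either arm, not effects specific to rucaparib; the reference for percent is not stated.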 Not stated in the record: the 100% reference.

MAP4K2 [SID405527457], rucaparib or vehicle Rucaparib, cell line OCI-C5x (clear cell), technical replicate 1 showed viability, normalised (%) = 60.4; active.
With MAP4K2 [SID405527457], rucaparib or vehicle Rucaparib, cell line OCI-C5x (clear cell), technical replicate 2 the deposit lists viability, normalised (%) = 51.7; active.
MAP4K2 [SID405527457], rucaparib or vehicle Rucaparib, cell line OCI-C5x (clear cell), technical replicate 3 showed viability, normalised (%) = 61.8; active.
For MAP4K2 [SID405527457], rucaparib or vehicle Rucaparib, cell line OCI-P5x (serous), technical replicate 1 the deposit lists viability, normalised (%) = 114; inactive.
MAP4K2 [SID405527457], rucaparib or vehicle Rucaparib, cell line OCI-P5x (serous), technical replicate 2 scored viability, normalised (%) = 107; inactive.
MAP4K2 [SID405527457], rucaparib or vehicle Rucaparib, cell line OCI-P5x (serous), technical replicate 3 gave viability, normalised (%) = 109; inactive.
With MAP4K2 [SID405527457], rucaparib or vehicle Vehicle, cell line OCI-C5x (clear cell), technical replicate 1, the entry reads viability, normalised (%) = 65.6; active.
MAP4K2 [SID405527457], rucaparib or vehicle Vehicle, cell line OCI-C5x (clear cell), technical replicate 2 scored viability, normalised (%) = 71.2; active.
MAP4K2 [SID405527457], rucaparib or vehicle Vehicle, cell line OCI-C5x (clear cell), technical replicate 3 scored viability, normalised (%) = 61.2; active.
MAP4K2 [SID405527457], rucaparib or vehicle Vehicle, cell line OCI-P5x (serous), technical replicate 1 showed viability, normalised (%) = 94; inactive.
MAP4K2 [SID405527457], rucaparib or vehicle Vehicle, cell line OCI-P5x (serous), technical replicate 2 scored viability, normalised (%) = 95.3; inactive.
For MAP4K2 [SID405527457], rucaparib or vehicle Vehicle, cell line OCI-P5x (serous), technical replicate 3, the entry reads viability, normalised (%) = 98.5; inactive.
For EXT1 [SID405526368], rucaparib or vehicle Rucaparib, cell line OCI-C5x (clear cell), technical replicate 1, the entry reads viability, normalised (%) = 38.5; active.
EXT1 [SID405526368], rucaparib or vehicle Rucaparib, cell line OCI-C5x (clear cell), technical replicate 2 scored viability, normalised (%) = 59.3; active.
EXT1 [SID405526368], rucaparib or vehicle Rucaparib, cell line OCI-C5x (clear cell), technical replicate 3 gave viability, normalised (%) = 55; active.
For EXT1 [SID405526368], rucaparib or vehicle Rucaparib, cell line OCI-P5x (serous), technical replicate 1, the entry reads viability, normalised (%) = 89.3; inactive.
EXT1 [SID405526368], rucaparib or vehicle Rucaparib, cell line OCI-P5x (serous), technical replicate 2 gave viability, normalised (%) = 81.8; inactive.
EXT1 [SID405526368], rucaparib or vehicle Rucaparib, cell line OCI-P5x (serous), technical replicate 3 scored viability, normalised (%) = 84.1; inactive.
EXT1 [SID405526368], rucaparib or vehicle Vehicle, cell line OCI-C5x (clear cell), technical replicate 1 gave viability, normalised (%) = 67.1; active.
With EXT1 [SID405526368], rucaparib or vehicle Vehicle, cell line OCI-C5x (clear cell), technical replicate 2, the entry reads viability, normalised (%) = 64.9; active.
For EXT1 [SID405526368], rucaparib or vehicle Vehicle, cell line OCI-C5x (clear cell), technical replicate 3, the values are viability, normalised (%) = 62.2; active.
With EXT1 [SID405526368], rucaparib or vehicle Vehicle, cell line OCI-P5x (serous), technical replicate 1, the entry reads viability, normalised (%) = 66.2; active.
For EXT1 [SID405526368], rucaparib or vehicle Vehicle, cell line OCI-P5x (serous), technical replicate 2, the entry reads viability, normalised (%) = 68.4; active.
EXT1 [SID405526368], rucaparib or vehicle Vehicle, cell line OCI-P5x (serous), technical replicate 3 showed viability, normalised (%) = 78.7; active.
For PPARGC1A [SID405527178], rucaparib or vehicle Rucaparib, cell line OCI-C5x (clear cell), technical replicate 1, the values are viability, normalised (%) = 52.6; active.
PPARGC1A [SID405527178], rucaparib or vehicle Rucaparib, cell line OCI-C5x (clear cell), technical replicate 2 gave viability, normalised (%) = 37.9; active.
PPARGC1A [SID405527178], rucaparib or vehicle Rucaparib, cell line OCI-C5x (clear cell), technical replicate 3 scored viability, normalised (%) = 38.5; active.
PPARGC1A [SID405527178], rucaparib or vehicle Rucaparib, cell line OCI-P5x (serous), technical replicate 1 scored viability, normalised (%) = 54.4; active.
PPARGC1A [SID405527178], rucaparib or vehicle Rucaparib, cell line OCI-P5x (serous), technical replicate 2 gave viability, normalised (%) = 66.6; active.
With PPARGC1A [SID405527178], rucaparib or vehicle Rucaparib, cell line OCI-P5x (serous), technical replicate 3, the entry reads viability, normalised (%) = 78.1; active.
With PPARGC1A [SID405527178], rucaparib or vehicle Vehicle, cell line OCI-C5x (clear cell), technical replicate 1, the entry reads viability, normalised (%) = 41.2; active.
PPARGC1A [SID405527178], rucaparib or vehicle Vehicle, cell line OCI-C5x (clear cell), technical replicate 2 showed viability, normalised (%) = 44.4; active.
With PPARGC1A [SID405527178], rucaparib or vehicle Vehicle, cell line OCI-C5x (clear cell), technical replicate 3, the entry reads viability, normalised (%) = 52.6; active.
PPARGC1A [SID405527178], rucaparib or vehicle Vehicle, cell line OCI-P5x (serous), technical replicate 1 scored viability, normalised (%) = 73.4; active.
With PPARGC1A [SID405527178], rucaparib or vehicle Vehicle, cell line OCI-P5x (serous), technical replicate 2 the deposit lists viability, normalised (%) = 91.4; inactive.
PPARGC1A [SID405527178], rucaparib or vehicle Vehicle, cell line OCI-P5x (serous), technical replicate 3 showed viability, normalised (%) = 86.4; inactive.
For GDPD3 [SID405526676], rucaparib or vehicle Rucaparib, cell line OCI-C5x (clear cell), technical replicate 1, the entry reads viability, normalised (%) = 60.8; active.
GDPD3 [SID405526676], rucaparib or vehicle Rucaparib, cell line OCI-C5x (clear cell), technical replicate 2 gave viability, normalised (%) = 49.2; active.
With GDPD3 [SID405526676], rucaparib or vehicle Rucaparib, cell line OCI-C5x (clear cell), technical replicate 3, the values are viability, normalised (%) = 39.6; active.
GDPD3 [SID405526676], rucaparib or vehicle Rucaparib, cell line OCI-P5x (serous), technical replicate 1 gave viability, normalised (%) = 75.2; active.
GDPD3 [SID405526676], rucaparib or vehicle Rucaparib, cell line OCI-P5x (serous), technical replicate 2 scored viability, normalised (%) = 82.1; inactive.
GDPD3 [SID405526676], rucaparib or vehicle Rucaparib, cell line OCI-P5x (serous), technical replicate 3 gave viability, normalised (%) = 77.6; active.
With GDPD3 [SID405526676], rucaparib or vehicle Vehicle, cell line OCI-C5x (clear cell), technical replicate 1 the deposit lists viability, normalised (%) = 32.1; active.
GDPD3 [SID405526676], rucaparib or vehicle Vehicle, cell line OCI-C5x (clear cell), technical replicate 2 gave viability, normalised (%) = 47; active.
GDPD3 [SID405526676], rucaparib or vehicle Vehicle, cell line OCI-C5x (clear cell), technical replicate 3 showed viability, normalised (%) = 43.9; active.
With GDPD3 [SID405526676], rucaparib or vehicle Vehicle, cell line OCI-P5x (serous), technical replicate 1, the values are viability, normalised (%) = 58.7; active.
GDPD3 [SID405526676], rucaparib or vehicle Vehicle, cell line OCI-P5x (serous), technical replicate 2 scored viability, normalised (%) = 73.9; active.
GDPD3 [SID405526676], rucaparib or vehicle Vehicle, cell line OCI-P5x (serous), technical replicate 3 scored viability, normalised (%) = 91.1; inactive.

2 neighbouring entries already listed, for reference:
EXT1 [SID405526368], rucaparib or vehicle Rucaparib, cell line OCI-P5x (serous), technical replicate 2 | viability, normalised (%) = 81.8; call = inactive
EXT1 [SID405526368], rucaparib or vehicle Rucaparib, cell line OCI-P5x (serous), technical replicate 3 | viability, normalised (%) = 84.1; call = inactive
